Publication PMC4792956
Results are given in words; binding and its absence hold for the method and conditions named. Binding seen in cells or lysates may run through a third protein. These calls come from enrichment with a bait or labelling near it, and not all partners need be listed. No binding means not detected with the bait. Sequences can lack the tags named with a protein.

By UniProt entry, the sequences of proteins in these tests, tags left out.
UniProt Q9V3Z6: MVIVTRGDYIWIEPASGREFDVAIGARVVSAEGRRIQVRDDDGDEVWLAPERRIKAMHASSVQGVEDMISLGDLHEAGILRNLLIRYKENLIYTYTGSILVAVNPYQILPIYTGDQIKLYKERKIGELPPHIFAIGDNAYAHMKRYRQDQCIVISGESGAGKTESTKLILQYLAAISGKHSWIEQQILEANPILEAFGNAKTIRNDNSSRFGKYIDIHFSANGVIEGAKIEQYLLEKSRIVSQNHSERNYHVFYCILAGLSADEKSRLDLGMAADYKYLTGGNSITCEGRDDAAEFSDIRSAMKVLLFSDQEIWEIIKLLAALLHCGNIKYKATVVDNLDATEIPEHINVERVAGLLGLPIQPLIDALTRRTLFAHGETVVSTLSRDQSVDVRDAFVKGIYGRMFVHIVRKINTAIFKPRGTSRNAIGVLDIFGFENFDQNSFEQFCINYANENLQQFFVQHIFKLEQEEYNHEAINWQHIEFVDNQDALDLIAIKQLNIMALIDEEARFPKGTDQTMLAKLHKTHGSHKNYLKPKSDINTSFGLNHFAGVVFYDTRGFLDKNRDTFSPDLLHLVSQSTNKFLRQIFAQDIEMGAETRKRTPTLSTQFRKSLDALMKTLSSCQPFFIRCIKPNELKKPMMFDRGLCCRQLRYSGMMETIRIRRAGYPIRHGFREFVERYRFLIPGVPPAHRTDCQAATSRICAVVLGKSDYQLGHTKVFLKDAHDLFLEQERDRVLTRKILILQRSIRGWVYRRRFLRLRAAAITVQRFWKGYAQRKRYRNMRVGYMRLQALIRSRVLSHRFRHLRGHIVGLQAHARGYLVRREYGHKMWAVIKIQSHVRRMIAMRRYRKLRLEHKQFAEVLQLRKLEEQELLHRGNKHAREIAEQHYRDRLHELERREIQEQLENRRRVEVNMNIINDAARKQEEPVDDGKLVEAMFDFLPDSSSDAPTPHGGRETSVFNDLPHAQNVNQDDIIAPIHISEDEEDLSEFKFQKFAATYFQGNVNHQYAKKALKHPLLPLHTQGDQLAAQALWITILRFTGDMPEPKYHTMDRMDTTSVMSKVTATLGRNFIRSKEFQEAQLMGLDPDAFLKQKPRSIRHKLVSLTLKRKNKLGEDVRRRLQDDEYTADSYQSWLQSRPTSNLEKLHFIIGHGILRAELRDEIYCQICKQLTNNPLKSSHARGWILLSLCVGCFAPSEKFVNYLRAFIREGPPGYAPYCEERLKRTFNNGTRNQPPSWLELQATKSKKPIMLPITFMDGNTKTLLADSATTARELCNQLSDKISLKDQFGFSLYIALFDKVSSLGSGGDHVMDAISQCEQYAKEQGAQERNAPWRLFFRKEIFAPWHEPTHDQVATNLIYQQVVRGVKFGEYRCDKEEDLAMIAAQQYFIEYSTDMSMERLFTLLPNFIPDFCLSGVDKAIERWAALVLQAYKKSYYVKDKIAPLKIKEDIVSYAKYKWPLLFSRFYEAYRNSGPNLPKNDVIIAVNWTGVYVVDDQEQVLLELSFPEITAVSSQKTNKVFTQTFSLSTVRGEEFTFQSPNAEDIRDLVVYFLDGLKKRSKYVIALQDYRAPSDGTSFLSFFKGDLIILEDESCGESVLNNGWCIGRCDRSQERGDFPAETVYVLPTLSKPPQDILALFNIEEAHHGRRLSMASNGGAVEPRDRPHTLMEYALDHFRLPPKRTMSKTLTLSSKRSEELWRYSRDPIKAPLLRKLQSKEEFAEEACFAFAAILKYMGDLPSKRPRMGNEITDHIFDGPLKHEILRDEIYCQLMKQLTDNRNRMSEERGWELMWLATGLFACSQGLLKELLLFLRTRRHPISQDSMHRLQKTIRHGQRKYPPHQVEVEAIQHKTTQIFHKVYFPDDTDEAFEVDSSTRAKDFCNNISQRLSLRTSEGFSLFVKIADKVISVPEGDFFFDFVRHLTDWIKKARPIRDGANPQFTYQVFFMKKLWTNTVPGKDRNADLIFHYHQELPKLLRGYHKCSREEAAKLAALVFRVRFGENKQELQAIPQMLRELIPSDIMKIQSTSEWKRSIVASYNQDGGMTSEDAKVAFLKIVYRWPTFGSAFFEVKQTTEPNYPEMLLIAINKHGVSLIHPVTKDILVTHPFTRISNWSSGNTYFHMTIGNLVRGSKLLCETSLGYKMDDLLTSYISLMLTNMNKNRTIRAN

Assays:
HA3x-tagged DREDD = target: T1, HA3x-tagged DREDD (UniProt Q8IRY7); assay: affinity purification with mass spectrometry; HA3x-tagged baits stably expressed in Drosophila S2 cells; large-scale affinity purification on α-HA resin, mass spectrometric analysis; minimum score of two unique peptides
T1 sequence: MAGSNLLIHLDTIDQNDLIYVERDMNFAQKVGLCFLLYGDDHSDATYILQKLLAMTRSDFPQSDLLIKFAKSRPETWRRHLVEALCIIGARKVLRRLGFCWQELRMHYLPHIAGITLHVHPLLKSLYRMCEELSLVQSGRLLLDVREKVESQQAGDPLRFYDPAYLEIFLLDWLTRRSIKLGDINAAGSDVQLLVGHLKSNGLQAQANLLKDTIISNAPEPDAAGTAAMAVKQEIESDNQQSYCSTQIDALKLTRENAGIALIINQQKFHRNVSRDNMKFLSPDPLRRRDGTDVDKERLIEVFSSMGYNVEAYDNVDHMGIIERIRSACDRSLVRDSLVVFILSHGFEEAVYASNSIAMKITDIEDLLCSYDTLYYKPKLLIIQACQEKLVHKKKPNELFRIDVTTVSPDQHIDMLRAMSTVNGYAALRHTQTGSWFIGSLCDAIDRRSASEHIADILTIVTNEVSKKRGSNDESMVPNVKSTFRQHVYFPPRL

HA3x-tagged KENNY = target: T2, HA3x-tagged KENNY (UniProt Q9GYV5); assay: as above
T2 sequence: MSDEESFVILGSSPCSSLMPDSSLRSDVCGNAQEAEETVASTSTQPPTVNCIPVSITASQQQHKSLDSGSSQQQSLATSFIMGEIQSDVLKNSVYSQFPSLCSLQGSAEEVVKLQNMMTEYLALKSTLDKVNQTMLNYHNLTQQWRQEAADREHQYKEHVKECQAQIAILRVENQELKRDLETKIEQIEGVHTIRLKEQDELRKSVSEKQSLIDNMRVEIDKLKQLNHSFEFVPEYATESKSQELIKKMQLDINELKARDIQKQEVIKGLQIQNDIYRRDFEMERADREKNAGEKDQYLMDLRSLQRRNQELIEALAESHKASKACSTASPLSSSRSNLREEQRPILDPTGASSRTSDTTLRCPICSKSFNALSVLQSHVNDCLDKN

For “CRINKLED (CK), endogenous in S2 cells (from UniProt Q9V3Z6 1-2167)”, which binding (HA3x-tagged DREDD) is on record?
The binding was “no binding”.

What about the binding (HA3x-tagged KENNY) of the same sequence?
Its binding is “no binding”.
